The other results are listed elsewhere or left out. These are raw signals, not scaled to a control.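 Primary screen: polymyxin B was added at a level permeabilizing Salmonella outer membranes while sparing inner membranes. DMSO wells, both with and without polymyxin B, established maximum growth. Plate-to-plate variation meant each plate was ranked on its own, and the lowest-OD600 compounds were selected as hits.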
Tested on: Salmonella enterica serovar Typhimurium SL1344
Assay: bacterial growth OD600 after 18 h with compound and polymyxin B; higher = more bacterial growth (less inhibition)
Conditions: 50 µM, Mueller-Hinton broth

Structure (SMILES) | bacterial growth OD600 (polymyxin B 1 µg/mL) | bacterial growth OD600 (polymyxin B 0.75 µg/mL)
O=C1CCN(C(=O)CC2c3ccccc3CCc3ccccc32)CCN1 | 0.962 | 
CN(Cc1cnn(C)c1)CC1CCN(CCc2ccc(Cl)cc2)CC1 | 0.818 | 
COc1cccc(CCC2CCCN(C3CCN(C(C)=O)CC3)C2)c1 (centres undefined) |  | 0.875
CN1CCCC(CN(CCc2ccccc2)C(=O)CCc2cccnc2)C1 (centres undefined) | 0.842 | 
COc1ccc(F)c(CC2(CCC(=O)N3CCN(Cc4ccccc4OC)CC3)CCC(=O)N2)c1 (centres undefined) |  | 0.833
COc1cccc(CC(C2CCN(C(=O)c3ccccc3F)CC2)N(C)C(=O)c2cccnc2)c1 (centres undefined) |  | 0.925
COc1ccccc1C(C)N(C)Cc1nc(-c2ccc(C(F)(F)F)cc2)no1 (centres undefined) | 0.499 | 
CN1CCC(NC2CCN(c3ccc(C(=O)N4CCc5ccccc5C4)cc3)CC2)CC1 |  | 0.779
COCc1c(C(=O)NCc2ccc(C)cc2)cnn1-c1nccc(-c2cc(C)sc2C)n1 |  | 0.001
CCO[C@H]1[C@H](NC(=O)c2ccco2)c2ccccc2C12CCN(C(=O)c1cscn1)CC2 |  | 0.713
CC(C)CNc1ccc(C(=O)NCc2noc(C(C)C)n2)cn1 |  | 0.788
Cc1ncc2c(c1CNC(=O)/C=C/c1cccs1)CCN(C(=O)CCC(=O)c1ccc(F)cc1)C2 |  | 0.83
O=C(Nc1cnn(-c2ccc(C(=O)N3CCOc4ccccc4C3)cc2)c1)c1cccnc1 |  | 0.37
Cc1ccccc1Oc1ncccc1CNCc1c[nH]cn1 | 1.11 | 
COc1ccc(CN2CCN(Cc3ccc(C)o3)CC2CCO)cc1C (centres undefined) | 1.05 | 
CN(C)c1ccccc1C(=O)NCC1CCC2(CCN(Cc3ccccc3)CC2)O1 (centres undefined) |  | 0.85
CCOc1ccccc1CN1CCN(Cc2ccc3nsnc3c2)CC1CCO (centres undefined) | 1.06 | 
COc1ccc(CN2CCN(C3CCCC3)C(CCO)C2)c(OC)c1C (centres undefined) | 0.809 | 
COC(=O)C1CCCCN1C(=O)c1c(OC)cc(=O)n2c1CCN(Cc1ccc3c(c1)OCO3)CC2 (centres undefined) |  | 0.874

An excerpt of these results, with tabs.
Structure (SMILES)	bacterial growth OD600 (polymyxin B 1 µg/mL)	bacterial growth OD600 (polymyxin B 0.75 µg/mL)
Cc1ncc2c(c1CNC(=O)/C=C/c1cccs1)CCN(C(=O)CCC(=O)c1ccc(F)cc1)C2		0.83
COc1ccc(CN2CCN(Cc3ccc(C)o3)CC2CCO)cc1C (centres undefined)	1.05	

Source: the supplement of paper PMC12889115
